Holding throughout (experiment): co-IP; transfected cells lysed in 0.2% Triton X-100, 200 mM NaCl, 50 mM Tris pH 7.4, 1 mM CaCl2; the Flag-tagged protein precipitated with anti-Flag M2 affinity gel at 4°C for 1 hr; HA-IFT57 detected by anti-HA blot; D1R-IFT57 also tested after control or Rab23 siRNA
Experiment [1] addresses Flag-tagged D1R with internal deletion of residues 381-395 (UniProt P21728).
Experiment [2] deals with Flag-tagged delta opioid peptide receptor (UniProt P32300).
The next experiment deals with T1, Flag-KIF17 (UniProt Q9P2E2).
T1 sequence: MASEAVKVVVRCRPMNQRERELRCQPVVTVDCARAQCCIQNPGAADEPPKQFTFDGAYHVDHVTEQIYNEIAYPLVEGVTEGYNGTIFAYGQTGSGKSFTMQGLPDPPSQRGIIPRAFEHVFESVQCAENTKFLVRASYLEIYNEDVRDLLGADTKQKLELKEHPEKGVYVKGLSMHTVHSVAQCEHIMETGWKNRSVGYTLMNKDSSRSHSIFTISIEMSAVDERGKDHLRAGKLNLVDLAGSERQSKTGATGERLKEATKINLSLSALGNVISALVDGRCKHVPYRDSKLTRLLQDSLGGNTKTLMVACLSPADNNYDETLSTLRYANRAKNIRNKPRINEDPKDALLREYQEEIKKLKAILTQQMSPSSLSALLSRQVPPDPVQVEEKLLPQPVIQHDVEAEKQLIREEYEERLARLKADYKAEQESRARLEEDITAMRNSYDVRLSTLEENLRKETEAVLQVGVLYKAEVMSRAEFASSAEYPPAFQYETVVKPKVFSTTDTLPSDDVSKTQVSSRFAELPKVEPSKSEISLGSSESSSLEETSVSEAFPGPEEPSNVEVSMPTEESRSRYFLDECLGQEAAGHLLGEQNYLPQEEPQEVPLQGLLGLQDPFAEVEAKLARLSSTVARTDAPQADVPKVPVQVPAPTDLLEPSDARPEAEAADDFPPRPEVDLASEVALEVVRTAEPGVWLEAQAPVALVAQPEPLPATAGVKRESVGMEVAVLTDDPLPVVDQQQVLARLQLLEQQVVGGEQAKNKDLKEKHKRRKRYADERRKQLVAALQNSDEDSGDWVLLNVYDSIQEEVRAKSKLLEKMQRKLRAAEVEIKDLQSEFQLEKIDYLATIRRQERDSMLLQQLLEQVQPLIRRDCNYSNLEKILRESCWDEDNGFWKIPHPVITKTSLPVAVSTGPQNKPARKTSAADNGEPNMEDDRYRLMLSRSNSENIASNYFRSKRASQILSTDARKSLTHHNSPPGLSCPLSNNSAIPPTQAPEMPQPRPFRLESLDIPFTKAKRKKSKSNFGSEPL

By UniProt entry, the sequences of proteins in these tests, tags left out. Where a name states a change or a piece, a line headed by the entry shows the natural chain unless it says otherwise. Chains listed by the source or under a name are the forms on record and can include a tag or linker. Residues count along the entry.
UniProt P21728: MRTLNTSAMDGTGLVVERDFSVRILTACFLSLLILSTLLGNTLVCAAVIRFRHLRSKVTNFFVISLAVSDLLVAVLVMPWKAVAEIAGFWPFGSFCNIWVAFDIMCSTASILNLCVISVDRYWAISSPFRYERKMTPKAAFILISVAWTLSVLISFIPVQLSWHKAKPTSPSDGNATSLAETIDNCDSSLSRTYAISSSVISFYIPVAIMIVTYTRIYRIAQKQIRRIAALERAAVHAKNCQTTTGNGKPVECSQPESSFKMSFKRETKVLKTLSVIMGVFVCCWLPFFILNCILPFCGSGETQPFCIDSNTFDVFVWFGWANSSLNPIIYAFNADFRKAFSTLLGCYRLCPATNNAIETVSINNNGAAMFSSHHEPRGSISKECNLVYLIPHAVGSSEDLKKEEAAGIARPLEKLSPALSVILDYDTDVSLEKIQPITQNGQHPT
Flag-tagged D1R with internal deletion of residues 381-395 (P21728, form named): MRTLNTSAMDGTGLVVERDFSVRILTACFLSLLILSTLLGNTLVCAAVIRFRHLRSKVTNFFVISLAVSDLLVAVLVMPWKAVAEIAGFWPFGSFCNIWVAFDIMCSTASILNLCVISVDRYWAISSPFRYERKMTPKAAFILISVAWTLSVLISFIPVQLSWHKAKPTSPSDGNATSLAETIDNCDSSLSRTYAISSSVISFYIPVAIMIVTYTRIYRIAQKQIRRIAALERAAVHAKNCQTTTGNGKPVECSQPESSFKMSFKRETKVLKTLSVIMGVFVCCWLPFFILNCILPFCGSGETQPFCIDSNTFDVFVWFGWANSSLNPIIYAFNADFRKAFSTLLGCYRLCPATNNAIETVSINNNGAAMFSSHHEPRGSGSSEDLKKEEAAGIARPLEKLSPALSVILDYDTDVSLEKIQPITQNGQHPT
UniProt P32300: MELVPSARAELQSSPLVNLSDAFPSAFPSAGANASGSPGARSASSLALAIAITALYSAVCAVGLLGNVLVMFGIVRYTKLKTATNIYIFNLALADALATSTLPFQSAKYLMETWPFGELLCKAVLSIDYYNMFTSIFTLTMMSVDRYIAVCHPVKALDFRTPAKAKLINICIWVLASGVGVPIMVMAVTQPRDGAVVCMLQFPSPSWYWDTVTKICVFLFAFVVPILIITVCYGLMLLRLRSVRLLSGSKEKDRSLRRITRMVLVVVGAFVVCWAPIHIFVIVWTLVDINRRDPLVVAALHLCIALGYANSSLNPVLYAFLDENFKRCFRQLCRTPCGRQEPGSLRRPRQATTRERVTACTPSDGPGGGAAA

Experiment [3] concerns the target Flag-tagged wild-type D1-type dopamine receptor (UniProt P21728).

No constants are given. Whether binding was seen depends on the method and setting. Binding seen in cells or lysates may run through a third protein. Some entries that bind do so weakly or less than the wild type. Tags and fused reporters may be left off the sequences shown.

The source of these data is publication PMC4547097.

B1: N-terminally HA-tagged IFT57 (protein, UniProt Q8BXG3 1-429)
chain: MAAAAAVIPPSGLDDGVSRARGEGAGEAVVERGPGAAYHMFVVMEDLVEKLKLLRYEEELLRKSNLKPPSRHYFALPTNPGEQFYMFCTLAAWLINKTGRAFEQPQEYDDPNATISNILSELRSFGRTADFPPSKLKSGYGEQVCYVLDCLAEEALKYIGFTWKRPSYPVEELEEETVPEDDAELTLSKVDEEFVEEETDNEENFIDLNVLKAQTYRLDTNESAKQEDILESTTDAAEWSLEVERVLPQLKVTIRTDNKDWRIHVDQMHQHKSGIESALKETKGFLDKLHNEISRTLEKIGSREKYINNQLEHLVQEYRGAQAQLSEARERYQQGNGGVTERTRLLSEVTEELEKVKQEMEEKGSSMTDGTPLVKIKQSLTKLKQETVQMDIRIGVVEHTLLQSKLKEKCNMTRDMHAAVTPESAIGFY
For the molecule B1, the binding entry in experiment [1] is “binds”; in experiment [2] it was “no binding”; in the experiment with Flag-KIF17 it was “binds”; in experiment [3], “binds”.
